## Screening data

The results are deposited in PubChem (AID1053133; Broad Institute, 2014).

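Vaccinia-infected cells with a two-color viral stage reporter; Venus fluorescence read on a plate reader; the cell line is not named here; timing not stated here.
The test concentration is not given here.
Percent change in Venus reporter signal; lower (more negative) values mean stronger inhibition of that viral stage.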

Values are in %.
How 0% and 100% were set is not given here.
Common to all entries: measured here: Venus reporter, other viral stage.
Part of the compounds only, not a random draw; the main read-out is not listed here.

| # | SMILES | activity change (Venus) (%) |
|---|---|---|
| 1 | `C[C@H]1CN([C@@H](C)CO)C(=O)c2c(c3ccccc3n2C)-c2ccccc2CO[C@@H]1CN(C)S(=O)(=O)c1ccc(C#N)cc1` | -44.13 |
| 2 | `N#Cc1cccc(-c2ccc(C3[C@@H]4CN(S(=O)(=O)c5ccc(F)cc5)C[C@H]3N4)cc2)c1` (stereo not given in full) | -55.23 |
| 3 | `C[C@@H]1CCCCO[C@H](CN(C)Cc2ccccc2)[C@H](C)CN([C@@H](C)CO)C(=O)c2cc(NS(=O)(=O)c3ccccc3)ccc2O1` | -48.21 |
| 4 | `Cc1noc(C)c1S(=O)(=O)Nc1ccc2c(c1)C(=O)N([C@H](C)CO)C[C@@H](C)[C@@H](CN(C)Cc1ccccc1)OCCCC[C@H](C)O2` | -43.24 |
| 5 | `COc1cccc(-c2ccc([C@@H]3[C@@H](C#N)N(C(=O)Cc4ccccc4)[C@H]3CO)cc2)c1` | -32.83 |
| 6 | `C[C@H]1CN([C@@H](C)CO)S(=O)(=O)c2ccc(C#CC3CCCC3)cc2O[C@H]1CN(C)C(=O)Cc1ccncc1` | -33.36 |
| 7 | `C[C@@H]1CCCCO[C@@H](CN(C)Cc2ccc(Cl)c(Cl)c2)[C@H](C)CN([C@H](C)CO)C(=O)c2cc(NS(=O)(=O)c3cccs3)ccc2O1` | -70.07 |
| 8 | `C[C@@H]1CN([C@@H](C)CO)C(=O)c2cc(NC(=O)CCCN(C)C)ccc2O[C@@H](C)CCCCO[C@@H]1CN(C)Cc1ccc(C(F)(F)F)cc1` | -41.62 |
| 9 | `C[C@@H]1CN([C@H](C)CO)C(=O)Cc2cc(NC(=O)Nc3ccc(C(F)(F)F)cc3)ccc2O[C@@H]1CN(C)Cc1ccc2c(c1)OCO2` | -21.06 |
| 10 | `COc1cccc(-c2ccc(C3[C@H]4CNC[C@@H]3N4Cc3cc(F)ccc3F)cc2)c1` (stereo not given in full) | -23.88 |
| 11 | `C[C@H]1CCCCO[C@H](CN(C)Cc2ccc(Cl)c(Cl)c2)[C@@H](C)CN([C@@H](C)CO)C(=O)c2cc(NC(=O)c3ccccc3)ccc2O1` | -35.18 |
| 12 | `Cc1ccc(-c2ccc3c(c2)O[C@H](CN(C)C(=O)CN(C)C)[C@@H](C)CN([C@@H](C)CO)S3(=O)=O)cc1` | -30.63 |
| 13 | `C[C@@H]1CN([C@@H](C)CO)S(=O)(=O)c2ccc(-c3ccccc3)cc2O[C@H]1CN(C)C(=O)c1ccc2c(c1)OCO2` | -50.12 |
| 14 | `COc1ccc([Si](C)(C)[C@@H]2[C@@H](CCO)O[C@]3(C(=O)N(Cc4ccc(N5CCOC5=O)cc4)c4ccccc43)[C@H]2C)cc1` | -44.69 |
| 15 | `C[C@@H]1CCCCO[C@@H](CN(C)Cc2ccc(Cl)c(Cl)c2)[C@H](C)CN([C@@H](C)CO)C(=O)c2cc(NS(=O)(=O)c3ccc(Cl)cc3)ccc2O1` | -63.7 |
| 16 | `C[C@H](CO)N1C[C@H](C)[C@@H](CN(C)Cc2ccc(Cl)c(Cl)c2)Oc2ccc(NC(=O)c3ccncc3)cc2CC1=O` | -37.88 |
| 17 | `C[C@@H]1CN([C@@H](C)CO)C(=O)c2c(c3ccccc3n2C)-c2ccccc2CO[C@@H]1CN(C)S(=O)(=O)c1ccccc1C#N` | -32.21 |
| 18 | `CC(C)CC#Cc1ccc2c(c1)O[C@@H](CN(C)Cc1ccc3c(c1)OCO3)[C@@H](C)CN([C@@H](C)CO)S2(=O)=O` | -46.44 |
| 19 | `C[C@H]1CCCCO[C@H](CN(C)S(=O)(=O)c2ccccc2)[C@@H](C)CN([C@@H](C)CO)C(=O)c2cc(NS(=O)(=O)c3ccc(Cl)cc3)ccc2O1` | -28.09 |
| 20 | `COc1ccc(S(=O)(=O)N2CCCCN3[C@@H](CO)[C@H](c4ccc(C#CC(C)C)cc4)[C@@H]3C2)cc1` | -80.09 |
| 21 | `Cc1ccc(-c2ccc3c(c2)O[C@H](CN(C)Cc2cccnc2)[C@H](C)CN([C@H](C)CO)S3(=O)=O)cc1` | -49.81 |
| 22 | `C[C@@H]1CN([C@@H](C)CO)C(=O)c2cc(NC(=O)c3ccccc3)ccc2O[C@@H](C)CCCCO[C@@H]1CN(C)C(=O)C1CCCCC1` | -39.52 |
| 23 | `CCCNC(=O)N1[C@@H](C#N)[C@H](c2ccc(-c3ccccc3F)cc2)[C@@H]1CO` | -36.73 |
| 24 | `C[C@H](CO)N1C[C@H](C)[C@H](CN(C)C)Oc2cc(C#Cc3ccccc3)ccc2S1(=O)=O` | -26.37 |
| 25 | `C[C@H]1CN([C@@H](C)CO)C(=O)Cc2cc(NC(=O)Nc3ccc(C(F)(F)F)cc3)ccc2O[C@H]1CN(C)C(=O)NC1CCCCC1` | -30.7 |
| 26 | `COc1cccc(CN2CCCCN3[C@H](CO)[C@@H](c4ccc(C#Cc5cccnc5)cc4)[C@H]3C2)c1` | -24.37 |
| 27 | `COc1ccc2c3c([nH]c2c1)[C@@H](CO)N(C(C)=O)CC31CN(Cc2ccccc2Cl)C1` | -49.81 |
| 28 | `COc1ccc(NC(=O)Nc2ccc3c(c2)C(=O)N([C@H](C)CO)C[C@@H](C)[C@@H](CN(C)Cc2ccc(C(F)(F)F)cc2)O3)cc1` | -39.86 |
| 29 | `Cc1cccc(S(=O)(=O)N2C[C@@H]3N[C@H](C2)C3c2ccc(-c3cccc(C#N)c3)cc2)c1` (stereo not given in full) | -44.68 |
| 30 | `Cc1ccc(-c2cnc3c(c2)C(=O)N([C@H](C)CO)C[C@@H](C)[C@@H](CN(C)CC2CCCC2)O3)cc1` | -17.67 |
| 31 | `CC(C)CC#Cc1ccc2c(c1)O[C@@H](CN(C)C(=O)Cc1ccccc1)[C@H](C)CN([C@@H](C)CO)S2(=O)=O` | -23.74 |
| 32 | `C[C@H]1CN([C@@H](C)CO)C(=O)c2cccc(NS(=O)(=O)c3ccc(Cl)cc3)c2O[C@H]1CN(C)Cc1ccc(Cl)c(Cl)c1` | -37.47 |
| 33 | `COc1ccc(C#Cc2ccc([C@@H]3[C@@H](CO)N4CCCCN(C)C[C@H]34)cc2)cc1` | -45.64 |
| 34 | `COc1ccc(S(=O)(=O)N[C@H]2C=C[C@@H](CC(=O)N3CCC(Cc4ccccc4)CC3)O[C@H]2CO)cc1` | -34.55 |
| 35 | `CO[C@@H]1CN(C)C(=O)c2cc(NC(=O)c3ccc(Oc4ccccc4)cc3)ccc2OC[C@@H](C)N(C(C)=O)C[C@H]1C` | -37.06 |
| 36 | `O=C(Nc1cc(F)ccc1F)N1CCCCN2[C@@H](CO)[C@H](c3ccc(-c4ccccc4)cc3)[C@@H]2C1` | -50.99 |
| 37 | `CO[C@H]1CN(C)C(=O)c2ccc(NS(=O)(=O)c3cccc(F)c3)cc2OC[C@H](C)N(Cc2cc(F)ccc2F)C[C@H]1C` | -45.12 |
| 38 | `C[C@H](CO)N1C[C@H](C)[C@H](CN(C)C(=O)c2ccccc2F)Oc2cc(-c3ccc(F)cc3)ccc2S1(=O)=O` | -31.04 |
| 39 | `Cc1ccc(S(=O)(=O)N(C)C[C@@H]2Oc3ncc(C#Cc4ccc(F)cc4)cc3C(=O)N([C@H](C)CO)C[C@@H]2C)cc1` | -70.18 |
| 40 | `CCO[C@@H]1OC(C(=O)N2CCN(Cc3ccc4c(c3)OCO4)CC2)=C[C@H](c2cn(C(C)=O)c3ccccc23)[C@H]1CCCO` | -25.84 |
| 41 | `C[C@H](CO)N1C[C@H](C)[C@H](CN(C)Cc2ccc(Cl)c(Cl)c2)OCc2ccccc2-c2c(n(C)c3ccccc23)C1=O` | -44.02 |
| 42 | `COc1cccc(NC(=O)N(C)C[C@H]2Oc3cc(C#Cc4ccncc4)ccc3S(=O)(=O)N([C@H](C)CO)C[C@H]2C)c1` | -48.77 |
| 43 | `COc1ccccc1C#Cc1ccc([C@@H]2[C@@H](C#N)N(C(=O)C3CCCCC3)[C@H]2CO)cc1` | -25.47 |
| 44 | `C[C@@H]1CN([C@@H](C)CO)C(=O)c2cc(NC(=O)Cc3cn(C)c4ccccc34)ccc2O[C@@H]1CN(C)Cc1ccccc1` | -28.98 |
| 45 | `Cc1ccccc1-c1ccc2c(c1)O[C@H](CN(C)C(=O)Nc1ccccc1)[C@H](C)CN([C@H](C)CO)S2(=O)=O` | -32.27 |
| 46 | `CCCc1cn(CC[C@@H]2CC[C@H](NS(=O)(=O)c3ccc(-c4ccccc4)cc3)[C@@H](CO)O2)nn1` | -21.53 |
| 47 | `COc1ccc(NC(=O)Nc2ccc3c(c2)CC(=O)N([C@H](C)CO)C[C@H](C)[C@@H](CN(C)CC2CCCCC2)O3)cc1` | -52.51 |
| 48 | `OC[C@@H]1Nc2ccc(C#Cc3cccc(F)c3)cc2[C@@H]2NCC[C@H]12` | -71.67 |
| 49 | `Cc1noc(C)c1S(=O)(=O)Nc1ccc2c(c1)C(=O)N([C@H](C)CO)C[C@H](C)[C@@H](CN(C)S(=O)(=O)c1ccc(F)cc1)OCCCC[C@H](C)O2` | -27.63 |
| 50 | `O=C(NC1CCCCC1)N1CC(=O)N2[C@H](CO)[C@H](c3ccc(-c4cccc(F)c4)cc3)[C@H]2C1` | -52.24 |
| 51 | `COc1ccc(CN(C)C[C@@H]2OCCCC[C@H](C)Oc3ccc(NC(=O)Nc4ccc(OC)cc4)cc3C(=O)N([C@H](C)CO)C[C@H]2C)cc1` | -29.89 |
| 52 | `COc1cccc(-c2ccc(C3[C@@H]4CN(Cc5cccc(F)c5)C[C@H]3N4)cc2)c1` (stereo not given in full) | -25.93 |
| 53 | `O=C(Nc1ccc(-c2ccccc2)cc1)[C@H]1[C@H](CO)[C@H]2Cn3c(cccc3=O)[C@@H]1N2Cc1ccccc1` | -48.82 |
| 54 | `C[C@H]1CN([C@@H](C)CO)C(=O)c2cc(N(C)C)ccc2O[C@@H]1CN(C)S(=O)(=O)c1cccs1` | -35.84 |
| 55 | `CO[C@@H]1CN(C)C(=O)c2ccc(NC(=O)c3nc4ccccc4s3)cc2OC[C@@H](C)N(Cc2ccncc2)C[C@H]1C` | -49.1 |
| 56 | `COc1cccc(-c2ccc3c(c2)O[C@H](CN(C)C(=O)c2ccccc2F)[C@H](C)CN([C@@H](C)CO)S3(=O)=O)c1` | -25.68 |
| 57 | `COc1ccc(NC(=O)N(C)C[C@H]2OCCCC[C@H](C)Oc3ccc(NC(=O)C4CCCCC4)cc3C(=O)N([C@@H](C)CO)C[C@@H]2C)cc1` | -36.73 |

Repeated from the top, 7 entries:

- C[C@H]1CN([C@@H](C)CO)C(=O)c2c(c3ccccc3n2C)-c2ccccc2CO[C@@H]1CN(C)S(=O)(=O)c1ccc(C#N)cc1 : activity change (Venus) -44.13%
- N#Cc1cccc(-c2ccc(C3[C@@H]4CN(S(=O)(=O)c5ccc(F)cc5)C[C@H]3N4)cc2)c1 (stereo not given in full) : activity change (Venus) -55.23%
- C[C@@H]1CCCCO[C@H](CN(C)Cc2ccccc2)[C@H](C)CN([C@@H](C)CO)C(=O)c2cc(NS(=O)(=O)c3ccccc3)ccc2O1 : activity change (Venus) -48.21%
- Cc1noc(C)c1S(=O)(=O)Nc1ccc2c(c1)C(=O)N([C@H](C)CO)C[C@@H](C)[C@@H](CN(C)Cc1ccccc1)OCCCC[C@H](C)O2 : activity change (Venus) -43.24%
- COc1cccc(-c2ccc([C@@H]3[C@@H](C#N)N(C(=O)Cc4ccccc4)[C@H]3CO)cc2)c1 : activity change (Venus) -32.83%
- C[C@H]1CN([C@@H](C)CO)S(=O)(=O)c2ccc(C#CC3CCCC3)cc2O[C@H]1CN(C)C(=O)Cc1ccncc1 : activity change (Venus) -33.36%
- C[C@@H]1CCCCO[C@@H](CN(C)Cc2ccc(Cl)c(Cl)c2)[C@H](C)CN([C@H](C)CO)C(=O)c2cc(NS(=O)(=O)c3cccs3)ccc2O1 : activity change (Venus) -70.07%